Experimental data taken from US12653800B2, “Small molecule inhibitors of TLR2 signaling” (University of Maryland, Baltimore, priority 2015, dated 2026).
Some of these results come from one statement about several compounds together.

target: TLR2/1 (Homo sapiens, UniProt O60603); assay: P3C-induced IL-8 mRNA (qRT-PCR) in HEK-TLR2 stable transfectants; assay type: cell-based; design: expressed in transfected cells; details: 100 μM compound, 1 hr pretreatment, P3C 100 ng/mL 1 hr, HEK-TLR2 cells

Row | Compound | decrease of P3C-induced IL-8 mRNA [%]
1 | O=C(O)CCn1cc(I)c(=O)[nH]c1=O [Compound C10] | ≥ 50
2 | COc1cccc(/C=N/c2cccc(C(=O)O)c2C)c1O [Compound C29] | ≥ 50
3 | CCN(CCCNc1nc(=S)[nH]c2ccccc12)c1ccccc1 [Compound C32] | ≥ 50
